Results deposited as PubChem BioAssay AID1671195 (Yale University, 2021).
The deposit covers about 22,000 reagents; below is an unselected part. About 1,510 of them (6.9%) count as active. 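Active includes knockdowns raising or lowering LDL uptake; positive z-scores mean more uptake, negative mean less.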 A number with no mark means an inactive call.

Aim: 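Knockdowns that increase or decrease uptake of fluorescent LDL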 (primary screen)
System: human Huh7 hepatoma cells
Knock-down reagent: siRNA pool against human genes, 18 nM
Duration: about 2 to 2.5 days of knockdown, then 8 h LDL uptake
Treatment: DiI-labelled LDL at 30 µg/ml for 8 h, in lipoprotein-deficient serum medium
Measured: 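Fluorescent LDL signal imaged in cells, scaled to the plate median, robust z-score for each replicate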
Direction: robust z-score: higher = more LDL uptake after knockdown
Call rule: 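Active when two or more replicates show a robust z-score above 2 or below -2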

gene symbol	robust z-score, replicate 1	robust z-score, replicate 2	robust z-score, replicate 3
SST (somatostatin)	-0.181	0.384	1.82
ASAH2 (N-acylsphingosine amidohydrolase 2)	-0.87	-0.773	-0.963
XRN1 (5'-3' exoribonuclease 1)	-1.89	-1.11	-0.203
TNNT1 (troponin T1, slow skeletal type)	0.122	-0.839	1.54
FASTKD5 (FASTK mitochondrial RNA regulator 5)	1.41	2.27	1.51
MRPL54 (mitochondrial ribosomal protein L54)	-0.592	1.35	0.875
CCDC112 (coiled-coil domain containing 112)	-0.839	-2.04	-0.859
PHF24 (PHD finger protein 24)	-1.46	0.918	-2.13
HDAC11 (histone deacetylase 11)	-0.173	-0.0643	-0.751
PKNOX1 (PBX/knotted 1 homeobox 1)	0.883	0.833	1.56
ZNF714 (zinc finger protein 714)	-2.33 (active)	-1.6	-2.14
FBRSL1 (fibrosin like 1)	1.25	0.0648	0.202
LRRC59 (leucine rich repeat containing 59)	-0.927	-0.273	0.841
KRT74 (keratin 74)	-0.00831	-0.184	-0.956
SPTBN5 (spectrin beta, non-erythrocytic 5)	1.77	1.66	2.75
MAP3K2 (mitogen-activated protein kinase kinase kinase 2)	-0.836	-1.11	-1.69
SEC22B (SEC22 homolog B, vesicle trafficking protein)	0.232	1.09	0.743
KLK4 (kallikrein related peptidase 4)	0.288	-0.224	0.3
LOC441149 (retired record)	0.0575	0.111	0.228
MIR646HG (MIR646 host gene)	1.96	1.91	1.44
OR2T27 (olfactory receptor family 2 subfamily T member 27)	-0.0125	0.81	0.369
SELENOO (selenoprotein O)	-0.471	-0.38	0.41
LINC02908 (long independently transcribed non-coding RNA 2908)	-1.58	-1.7	-1.3
C1QTNF5 (C1q and TNF related 5)	-0.378	-0.974	-0.766
LRATD1 (LRAT domain containing 1)	0.452	-0.284	0.719
LOC388635 (retired record)	0.171	0.0955	0.718
EXOSC5 (exosome component 5)	-0.245	-0.0496	-0.471
CCDC102B (coiled-coil domain containing 102B)	-1.12	-1.16	-0.734
SLC43A3	1.42	0.0435	0.792
MTMR10 (myotubularin related protein 10)	-0.875	-0.591	0.153
WNT1 (Wnt family member 1)	-0.0967	0.853	-0.31
DCHS1 (dachsous cadherin-related 1)	-1.72	-1.16	-1.25
OBP2B (odorant binding protein 2B)	-1.22	-0.426	-0.256
GEM (GTP binding protein overexpressed in skeletal muscle)	-1.34	1.89	0.259
TTC38 (tetratricopeptide repeat domain 38)	0.862	0.0397	1.65
CYP4A11 (cytochrome P450 family 4 subfamily A member 11)	2.5 (active)	2.67	1.95
LMBRD2 (LMBR1 domain containing 2)	1.25	0.918	1.06
CTSO (cathepsin O)	-0.3	-0.336	13.8
NRBF2 (nuclear receptor binding factor 2)	-2.22	-0.634	0.212
C1orf162 (chromosome 1 open reading frame 162)	0.819	0.809	1.29
CARMIL3 (capping protein regulator and myosin 1 linker 3)	-0.278	0.0907	0.00977
CALY (calcyon neuron specific vesicular protein)	0.0803	0.154	-0.124

Records above whose gene name starts with M or m:
gene symbol	robust z-score, replicate 1	robust z-score, replicate 2	robust z-score, replicate 3
MRPL54 (mitochondrial ribosomal protein L54)	-0.592	1.35	0.875
MAP3K2 (mitogen-activated protein kinase kinase kinase 2)	-0.836	-1.11	-1.69
MIR646HG (MIR646 host gene)	1.96	1.91	1.44
MTMR10 (myotubularin related protein 10)	-0.875	-0.591	0.153

Additional records:
gene symbol	robust z-score, replicate 1	robust z-score, replicate 2	robust z-score, replicate 3
POTEA (POTE ankyrin domain family member A (gene/pseudogene))	-0.708	-0.86	-0.735
ZMYND10 (zinc finger MYND-type containing 10)	2.3	1.24	1.12
FGF18 (fibroblast growth factor 18)	-0.828	-0.241	-0.913
EML2 (EMAP like 2)	0.312	0.766	0.481
CDH13 (cadherin 13)	4.54 (active)	3.61	6.35
MRPS34 (mitochondrial ribosomal protein S34)	-0.728	-0.52	-0.776
MSL2 (MSL complex subunit 2)	1.11	-0.799	-0.885
TMOD2 (tropomodulin 2)	0.563	-0.145	-0.0293
NAA25 (N-alpha-acetyltransferase 25, NatB auxiliary subunit)	0.231	0.82	0.407
DDX5 (DEAD-box helicase 5)	0.201	0.0978	0.412
CCNC (cyclin C)	2.74	1.02	1.25
FAM135B (family with sequence similarity 135 member B)	0.979	1.57	-1.88
SCN10A (sodium voltage-gated channel alpha subunit 10)	0.196	-0.0626	0.527
LOC389657 (retired record)	0.0138	-0.0906	-0.217
SPPL2B (signal peptide peptidase like 2B)	-0.246	0.394	-0.772
SMUG1	-0.166	-0.83	0.375
LOC389339 (retired record)	0.151	0.547	0.679
COPS5 (COP9 signalosome subunit 5)	0.393	0.655	0.896
CA6 (carbonic anhydrase 6)	1.13	1.77	1.4
ELOB (elongin B)	-0.399	-0.558	-0.299
LOC400876 (retired record)	-0.791	-0.856	-0.965
MICALL2 (MICAL like 2)	-1.22	-0.875	-0.854
LOC440596 (retired record)	-1.02	-1.27	-0.94
ARHGEF40 (Rho guanine nucleotide exchange factor 40)	-1.65	-0.861	-1.81
GEMIN5 (gem nuclear organelle associated protein 5)	-0.161	0.686	-0.532
ZNF616 (zinc finger protein 616)	-0.67	-0.368	-0.763
